From PubChem BioAssay AID256 (DTP/NCI, 2004)
The list does not hold the whole screen: it is rich in T/C values a quarter to a half above the control, in often repeated tests (any T/C) and in doses without a T/C. Further doses and runs are listed elsewhere. T/C is the treated group as % of the vehicle group. Some doses have a count of surviving animals in place of a T/C: the source holds a T/C of zero for them, seemingly a mark for toxic or unscored doses. Some doses without a T/C left all or most animals alive at the check, yet need not have been tolerated: survival well below the control is almost never listed, so the zero probably covers shortened survival too. Survivors were counted at the toxicity check, usually on the fifth day, unless a day is given; later deaths do not show. Schedule codes are those of the source, read here as Q, the interval in days (D) or hours (H), X, the number of doses. Marks such as (2×) stand for listed records that agree. Where survival is the endpoint, the PubChem record calls one and a half times the control and up active, and a quarter to a half above the control has no call in these data; cut-offs in other NCI protocols can differ.

System: CD2F1 mice, L1210 leukemia ip, survival T/C
Test: NCI In Vivo Anticancer Drug Screen. Data for tumor model L1210 Leukemia (intraperitoneal) in CD2F1 (CDF1) mice
Settings: T/C endpoint: mean survival time, higher T/C = longer survival
How it was run: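 Tumor-bearing mice (transplanted tumor) were split into treated and vehicle control groups, and the measured endpoint of each treated group was divided by that of its vehicle controls.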

[1] = dose: 200.0 mg/kg/injection, schedule: Q01DX001 (ip), vehicle: saline with Tween-80
[2] = dose: 100.0 mg/kg/injection, schedule: Q04DX003 (ip), vehicle: saline with Tween-80
[3] = dose: 400.0 mg/kg/injection, schedule: Q04DX003 (ip), vehicle: saline with Tween-80
[4] = dose: 200.0 mg/kg/injection, schedule: Q01DX001 (ip), vehicle: saline
[5] = dose: 400.0 mg/kg/injection, schedule: Q01DX001 (ip), vehicle: saline

CCN(CC)C(=O)N1CC2CCC(C1)N2C
survivor count (dose: 200.0 mg/kg/injection, schedule: Q04DX003 (ip), vehicle: saline): 0 of 6 | survivor count (dose: 400.0 mg/kg/injection, schedule: Q04DX003 (ip), vehicle: saline): 0 of 6

CCC1CCC(NC(C)=O)CC1 (stereo not drawn)
survivor count [1]: 3 of 6 | survivor count (dose: 400.0 mg/kg/injection, schedule: Q01DX001 (ip), vehicle: saline with Tween-80): 0 of 6

CO[C@H]1/C=C/O[C@@]2(C)Oc3c(C)c(O)c4c(O)c(c(/C=N/N5C(C)CN(Cc6ccccc6)CC5C)c(O)c4c3C2=O)NC(=O)/C(C)=C\C=C\[C@H](C)[C@H](O)[C@@H](C)[C@@H](O)[C@@H](C)[C@H](OC(C)=O)[C@@H]1C (stereo partly drawn)
survivor count [2]: 6 of 6 | survivor count [3]: 5 of 6

N#CC(c1ccccc1)C(CC(=O)c1ccccc1)c1ccccc1 (stereo not drawn)
survivor count (dose: 400.0 mg/kg/injection, schedule: Q01DX009 (ip), vehicle: saline with Tween-80): 6 of 6

CCCN1CCc2cc3c(cc2C1)OCO3
survivor count [4]: 0 of 6 | survivor count [5]: 0 of 6

C=Cc1nnnn1C12CC3CC(CC(C3)C1)C2
survivor count [1]: 0 of 6

O=C(NC/C=C/Br)Nc1cnc2ccccc2c1
survivor count [2]: 6 of 6

COc1ccc([I+]c2ccc(OC)cc2)cc1
survivor count (dose: 12.5 mg/kg/injection, schedule: Q01DX009 (ip), vehicle: saline with Tween-80): 4 of 6 | survivor count (dose: 25.0 mg/kg/injection, schedule: Q01DX009 (ip), vehicle: saline with Tween-80): 5 of 6 | survivor count (dose: 50.0 mg/kg/injection, schedule: Q01DX009 (ip), vehicle: saline with Tween-80): 1 of 6

Cc1c(CNc2ccc(C(=O)NC(CC(=O)O)CC(=O)O)cc2)ccc2nc(N)nc(N)c12
T/C (dose: 0.13 mg/kg/injection, schedule: Q01DX009 (ip), vehicle: saline): 136 % of control

[Br][Pt+2][Br].[NH-]c1ccc(F)cc1.[NH-]c1ccc(F)cc1
survivor count (dose: 200.0 mg/kg/injection, schedule: Q04DX003 (ip), vehicle: distilled water + Tween-80): 6 of 6

C[C@]12CC[C@H](OC3OC(CO)C(O)C(O)C3O)C[C@H]1CC[C@@H]1[C@@H]2CC[C@]2(C)[C@@H](C3=CCOC3=O)CC[C@]12O (stereo partly drawn)
survivor count (dose: 4.0 mg/kg/injection, schedule: Q01DX009 (ip), vehicle: saline): 6 of 6

[O-][n+]1ccccc1F
survivor count [4]: 0 of 6 | survivor count [5]: 0 of 6

C=CCOCC(O)CN(CCC)CCC (stereo not drawn)
survivor count (dose: 100.0 mg/kg/injection, schedule: Q04DX003 (ip), vehicle: saline): 6 of 6 | survivor count (dose: 200.0 mg/kg/injection, schedule: Q04DX003 (ip), vehicle: saline with Tween-80): 1 of 6 | survivor count [3]: 0 of 6

C[n+]1cccc(/C=C/C(=O)Nc2ccccc2)c1
survivor count [3]: 0 of 6

CC[N+]1(Cc2ccccc2)CC2(CCCCC2)ON2C1CC(C)C2(C)C (stereo not drawn)
survivor count (dose: 100.0 mg/kg/injection, schedule: Q01DX009 (ip), vehicle: saline with Tween-80): 2 of 6

NC(=O)C(NCc1ccccc1)c1ccccc1 (stereo not drawn)
survivor count [3]: 5 of 6

CC[N](CC)[Ge]([CH2]C)[CH2]C.CC[N](CC)[Ge]([CH2]C)[CH2]C
survivor count (dose: 3.12 mg/kg/injection, schedule: Q01DX009 (ip), vehicle: suspension in saline): 6 of 6 | survivor count (dose: 6.25 mg/kg/injection, schedule: Q01DX009 (ip), vehicle: suspension in saline): 6 of 6 | survivor count (dose: 12.5 mg/kg/injection, schedule: Q01DX009 (ip), vehicle: suspension in saline): 6 of 6 | survivor count (dose: 25.0 mg/kg/injection, schedule: Q01DX009 (ip), vehicle: suspension in saline): 6 of 6 | survivor count (dose: 50.0 mg/kg/injection, schedule: Q01DX009 (ip), vehicle: suspension in saline): 3 of 6 | survivor count (dose: 100.0 mg/kg/injection, schedule: Q01DX009 (ip), vehicle: saline): 0 of 6 | survivor count (dose: 100.0 mg/kg/injection, schedule: Q01DX009 (ip), vehicle: suspension in saline): 0 of 6 (2×)

CCCCCCC[CH2][Sn]([CH2]C)([CH2]C)[O]C(C)=O
survivor count (dose: 2.5 mg/kg/injection, schedule: Q04DX003 (ip), vehicle: saline): 6 of 6
